Where two headings read alike, the source gives them in different places. Results are given in words; binding and its absence hold for the method and conditions named. Binding seen in cells or lysates may run through a third protein. A yes stands for co-enrichment or nearness to the bait. Other partners may have been found.
B1: Abp1p, endogenous (protein, UniProt P15891 1-592)
chain: MALEPIDYTTHSREIDAEYLKIVRGSDPDTTWLIISPNAKKEYEPESTGSSFHDFLQLFDETKVQYGLARVSPPGSDVEKIIIIGWCPDSAPLKTRASFAANFAAVANNLFKGYHVQVTARDEDDLDENELLMKISNAAGARYSIQTSSKQQGKASTPPVKKSFTPSKSPAPVSKKEPVKTPSPAPAAKISSRVNDNNDDDDWNEPELKERDFDQAPLKPNQSSYKPIGKIDLQKVIAEEKAKEDPRLVQKPTAAGSKIDPSSDIANLKNESKLKRDSEFNSFLGTTKPPSMTESSLKNDDDKVIKGFRNEKSPAQLWAERKAKQNSGNAETKAEAPKPEVPEDEPEGEPDVKDLKSKFEGLAASEKEEEEMENKFAPPPKKSEPTIISPKPFSKPQEPVKAEEAEQPKTDYKKIGNPLPGMHIEADNEEEPEENDDDWDDDEDEAAQPPLPSRNVASGAPVQKEEPEQEEIAPSLPSRNSIPAPKQEEAPEQAPEEEIEEEAEEAAPQLPSRSSAAPPPPPRRATPEKKPKENPWATAEYDYDAAEDNELTFVENDKIINIEFVDDDWWLGELEKDGSKGLFPSNYVSLGN
B2: Mlc1p, endogenous (protein, UniProt P53141 1-149)
chain: MSATRANKDIFTLFDKKGQGAIAKDSLGDYLRAIGYNPTNQLVQDIINADSSLRDASSLTLDQITGLIEVNEKELDATTKAKTEDFVKAFQVFDKESTGKVSVGDLRYMLTGLGEKLTDAEVDELLKGVEVDSNGEIDYKKFIEDVLRQ
B3: Bni5p, endogenous (protein, UniProt P53890 1-448)
chain: MGLDQDKIKKRLSQIEIDINQMNQMIDENLQLVEPAEDEAVEDNVKDTGVVDAVKVAETALFSGNDGADSNPGDSAQVEEHKTAQVHIPTENEANKSTDDPSQLSVTQPFIAKEQITHTAIAIGDSYNSFVANSAGNEKAKDSCTENKEDGTVNIDQNRGEADVEIIENNDDEWEDEKSDVEEGRVDKGTEENSEIESFKSPMPQNNTLGGENKLDAELVLDKFSSANKDLDIQPQTIVVGGDNEYNHESSRLADQTPHDDNSENCPNRSGGSTPLDSQTKIFIPKKNSKEDGTNINHFNSDGDGQKKMANFETRRPTNPFRVISVSSNSNSRNGSRKSSLNKYDSPVSSPITSASELGSIAKLEKRHDYLSMKCIKLQKEIDYLNKMNAQGSLSMEDGKRLHRAVVKLQEYLDKKTKEKYEVGVLLSRHLRKQIDRGENGQFWIGTK

The chains behind the UniProt entries cited, without tags or fusion partners. Residues count along the entry.
UniProt P08964: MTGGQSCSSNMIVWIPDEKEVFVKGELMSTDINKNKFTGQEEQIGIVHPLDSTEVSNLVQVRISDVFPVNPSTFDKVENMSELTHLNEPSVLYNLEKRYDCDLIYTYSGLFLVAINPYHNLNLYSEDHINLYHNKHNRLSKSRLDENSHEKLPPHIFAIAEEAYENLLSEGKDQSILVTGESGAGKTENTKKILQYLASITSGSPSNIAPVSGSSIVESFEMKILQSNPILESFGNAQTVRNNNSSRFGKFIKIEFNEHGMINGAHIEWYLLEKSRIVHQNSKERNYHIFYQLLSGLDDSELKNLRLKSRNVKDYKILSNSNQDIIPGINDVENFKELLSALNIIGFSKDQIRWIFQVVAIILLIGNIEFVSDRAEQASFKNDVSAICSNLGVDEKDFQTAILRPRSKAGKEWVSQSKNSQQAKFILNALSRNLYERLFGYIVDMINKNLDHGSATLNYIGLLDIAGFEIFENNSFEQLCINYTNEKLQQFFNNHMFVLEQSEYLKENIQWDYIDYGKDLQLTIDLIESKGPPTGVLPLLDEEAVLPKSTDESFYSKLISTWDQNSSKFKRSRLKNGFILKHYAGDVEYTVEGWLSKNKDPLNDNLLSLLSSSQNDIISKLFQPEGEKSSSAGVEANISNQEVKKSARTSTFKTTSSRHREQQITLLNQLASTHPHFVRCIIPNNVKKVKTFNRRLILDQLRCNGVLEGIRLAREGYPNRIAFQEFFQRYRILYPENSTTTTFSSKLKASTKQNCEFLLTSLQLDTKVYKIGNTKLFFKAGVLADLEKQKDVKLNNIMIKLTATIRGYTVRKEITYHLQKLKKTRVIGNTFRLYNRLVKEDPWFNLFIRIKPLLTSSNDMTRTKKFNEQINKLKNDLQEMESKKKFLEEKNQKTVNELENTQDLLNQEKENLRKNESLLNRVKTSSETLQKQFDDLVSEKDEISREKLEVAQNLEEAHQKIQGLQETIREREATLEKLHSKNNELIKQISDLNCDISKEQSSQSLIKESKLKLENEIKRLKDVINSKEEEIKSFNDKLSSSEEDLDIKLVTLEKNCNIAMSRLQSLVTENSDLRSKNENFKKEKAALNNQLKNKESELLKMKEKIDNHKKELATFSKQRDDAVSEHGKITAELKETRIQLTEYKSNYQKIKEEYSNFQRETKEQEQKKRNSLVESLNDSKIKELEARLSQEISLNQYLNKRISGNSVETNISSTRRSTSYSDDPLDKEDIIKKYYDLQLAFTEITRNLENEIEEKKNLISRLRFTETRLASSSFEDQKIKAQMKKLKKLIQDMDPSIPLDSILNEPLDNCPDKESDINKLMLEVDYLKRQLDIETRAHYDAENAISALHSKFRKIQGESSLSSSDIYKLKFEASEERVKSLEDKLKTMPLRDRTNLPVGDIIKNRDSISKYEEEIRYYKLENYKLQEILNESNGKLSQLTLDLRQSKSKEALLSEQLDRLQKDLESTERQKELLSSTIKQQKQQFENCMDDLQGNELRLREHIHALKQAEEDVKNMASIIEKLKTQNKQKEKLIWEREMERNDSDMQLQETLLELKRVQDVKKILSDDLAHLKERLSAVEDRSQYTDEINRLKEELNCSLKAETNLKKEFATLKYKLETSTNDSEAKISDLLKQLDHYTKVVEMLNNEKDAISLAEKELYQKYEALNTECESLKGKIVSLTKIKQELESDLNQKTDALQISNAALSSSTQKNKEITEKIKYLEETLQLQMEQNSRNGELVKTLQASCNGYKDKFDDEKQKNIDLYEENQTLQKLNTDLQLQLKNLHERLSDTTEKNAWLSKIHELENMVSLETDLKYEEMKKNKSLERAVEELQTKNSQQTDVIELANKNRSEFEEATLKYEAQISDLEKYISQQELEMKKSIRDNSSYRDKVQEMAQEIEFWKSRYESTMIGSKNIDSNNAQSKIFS
UniProt P16474, residues 43-682: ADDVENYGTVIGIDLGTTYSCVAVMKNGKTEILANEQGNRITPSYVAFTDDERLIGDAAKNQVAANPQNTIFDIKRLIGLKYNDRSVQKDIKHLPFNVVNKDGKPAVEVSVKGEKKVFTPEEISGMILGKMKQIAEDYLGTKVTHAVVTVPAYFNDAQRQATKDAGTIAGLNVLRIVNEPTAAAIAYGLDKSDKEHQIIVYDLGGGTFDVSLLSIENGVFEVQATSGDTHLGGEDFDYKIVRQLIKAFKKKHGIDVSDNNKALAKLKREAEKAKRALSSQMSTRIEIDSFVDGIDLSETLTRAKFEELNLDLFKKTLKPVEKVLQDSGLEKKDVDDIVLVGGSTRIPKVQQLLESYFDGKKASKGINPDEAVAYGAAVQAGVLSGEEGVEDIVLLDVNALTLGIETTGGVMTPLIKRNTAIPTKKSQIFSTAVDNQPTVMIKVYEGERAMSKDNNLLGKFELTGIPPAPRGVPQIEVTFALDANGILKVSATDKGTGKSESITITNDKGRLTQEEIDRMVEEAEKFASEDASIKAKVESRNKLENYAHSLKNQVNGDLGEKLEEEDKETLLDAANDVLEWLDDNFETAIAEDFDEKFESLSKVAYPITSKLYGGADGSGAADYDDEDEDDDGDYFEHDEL

Legend:
[1] = target: Myo1-GFP (GFP tagged to the Myo1 C-terminus) (S. cerevisiae) (UniProt P08964); assay: affinity purification with mass spectrometry; Myo1-GFP captured from yeast lysate on anti-GFP Miltenyi µbeads; BY4741 as negative control; triplicate; Orbitrap Elite MS/MS, SEQUEST
[2] = target: Myo1-GFP (GFP tagged to the Myo1 C-terminus) (S. cerevisiae) (UniProt P08964); assay: as above; remark: listed apart in the source

| Molecule | binding [1] | binding [2] |
| --- | --- | --- |
| Kar2p, endogenous (from UniProt P16474 43-682) | binds | – |
| Act1p, endogenous (from UniProt P60010 1-375) | binds | – |
| B1 | – | binds |
| B2 | – | binds |
| B3 | – | binds |

Reference: article PMC4856097
